Numbering of substitutions follows the chain as printed. Like-named read-outs stand apart in the source and are kept apart here.
Experiments:
human IL-6 [1] = target: T1, human IL-6 (human, UniProt P05231 30-212); assay: SPR (ProteOn), Z variant immobilized, hIL-6 analyte, 1:1 model
T1 construct: recombinant, bought (Peprotech 200-06; R&D Systems 206-IL/CF); biotinylated in the ELISAs; also called hIL-6; rhIL-6
Method: The immobilization was performed using amine coupling chemistry according to the manufacturer's recommendations and PBST 0.05% was used as running buffer. PBST 0.05% was also used as running buffer in the kinetic experiment using a flow rate was 60 μl/min. […] After dissociation, the surfaces were regenerated with HCl supplemented with 0.05% Tween 20. Kinetic constants were calculated from the sensorgrams using a 1:1 model in Bio-Rad manager Software (Bio-Rad).

Sequences of proteins named here, by UniProt entry; tags and fusion partners are left off. Residues count along the entry.
UniProt P05231, 30-212 limits assumed: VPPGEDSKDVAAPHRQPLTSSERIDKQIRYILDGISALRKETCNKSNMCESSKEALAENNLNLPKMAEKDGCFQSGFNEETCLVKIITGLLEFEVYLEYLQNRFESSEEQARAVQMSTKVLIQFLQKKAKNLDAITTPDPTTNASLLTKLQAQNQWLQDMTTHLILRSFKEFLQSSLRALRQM

human IL-6 [2] = target: T1, human IL-6; assay: cell-based or functional assay
human IL-6 [3] = target: T1, human IL-6; assay: SPR (ProteOn), polypeptide immobilized, rhIL-6 analyte, mean of three
Method: This experiment was repeated three times.
In separate triplicate experiments, TNF (R&D Systems) was injected using the same concentration series. In all cases, the duration of the injection was 3 min at a flow rate of 60 μl/min and the dissociation time was 30 min. Buffer response levels obtained for activated/deactivated spots or in between spots areas were subtracted according to the manufacturer's instructions. The data was analyzed using Bio-Rad Manager Software (BioRad).

human IL-6 [4] = target: T1, human IL-6; assay: cell-based or functional assay; remark: listed apart in the source
human IL-6 [5] = target: T1, human IL-6; assay: competition ELISA: blocking of pre-mixed hIL-6/hIL-6Rα binding to coated hgp130-Fc
Method: In this experiment, half area 96-well ELISA plates were coated with Fc-fused hgp130 (hgp130-Fc) at a concentration of 4 μg/ml. Plates were incubated overnight at 4° C. and then washed twice in tap water. Next, the plates were blocked for 1 h in PBSC. Plates were incubated for 1.5 h at RT and then washed 4 times with 200 μl 0.05% Tween/PBS.
Plates were incubated for 1.5 h and then washed 4 times. A biotinylated anti-IL-6Rα antibody (R&D Systems) was added and the plates were incubated for another 1.5 h followed by washing. A 1:8000 dilution of streptavidin-HRP (Thermo Scientific) was added and the plates were incubated for 1 h.

human IL-6 [6] = target: T1, human IL-6; assay: cell-based or functional assay; remark: listed apart in the source
murine IL-6 = target: T2, murine IL-6 (murine, UniProt P08505 25-211); assay: ELISA, captured Z-ABD, biotin-mIL-6 titrated
T2 construct: biotinylated; also called mIL-6
T2 sequence: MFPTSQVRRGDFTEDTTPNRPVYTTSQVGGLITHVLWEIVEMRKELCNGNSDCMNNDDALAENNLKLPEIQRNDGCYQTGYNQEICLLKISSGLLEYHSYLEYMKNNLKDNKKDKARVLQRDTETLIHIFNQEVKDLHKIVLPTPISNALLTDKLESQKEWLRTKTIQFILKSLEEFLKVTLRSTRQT

B1: His6-Z06814 (designed binder)
chain: MGSSHHHHHHLQVDAKYAKEEQRAWREIHLLPNLTIEQMAAFIWKLLDDPSQSSELLSEAKKLNDSQAPKVD
Work on B1 yielded a Kd (human IL-6 [1]) of 0.2 nM, a koff (human IL-6 [1]) of 8.8e-05 s⁻¹ and a kon (human IL-6 [1]) of 430000 M⁻¹ s⁻¹. For the same binder, the “IC50, IL-6 dependent growth of TF-1 cells” value (“IC50, IL-6 dependent growth” for short) (human IL-6 [2]) was 0.13 nM, the Kd (human IL-6 [3]) was 0.5 nM and the koff (human IL-6 [3]) was 0.00015 s⁻¹. The kon (human IL-6 [3]) was 310000 M⁻¹ s⁻¹, the “IC50, IL-6 dependent growth” value (human IL-6 [4]) was 1.6 nM and the IC50 (human IL-6 [5]) was 1.6 nM.

B2: His6-Z06844 (designed binder)
chain: B1 chain with Q22H, R23A, R26L, I36V, E37K, W44G, L47M
In the case of B2, the “IC50, IL-6 dependent growth” value (human IL-6 [4]) is reported as 110 nM and the IC50 (human IL-6 [5]) is reported as 87 nM.

B3: Z06814-ABD (designed binder)
chain: MGSSLQVDAKYAKEEQRAWREIHLLPNLTIEQMAAFIWKLLDDPSQSSELLSEAKKLNDSQAPKVDGSLAEAKEAANAELDSYGVSDFYKRLIDKAKTVEGVEALKDAILAALP
With B3 the “IC50, IL-6 trans-signaling (MCP-1 secretion by HUVECs)” value (human IL-6 [6]) was roughly 1 nM and the “IC50, IL-6 dependent growth” value (human IL-6 [4]) was 0.8 nM.

B4: Z11612 (designed binder)
chain: AQHDEALEVDAKYAKEEQVAWWEISHLPNLTITQVVAFIQKLFDDPSQSSELLSEAKKLNDSQAPKVDYVLAEAKVLANRELDKYGVSDYYKNLINNAKTVEGVKALIDEILAALPYVPG
notes: domain: GA3; periplasmic ABD fusion
B4 gave an EC50 (murine IL-6) of 9.3 nM.

B5: Z11616 (designed binder)
chain: B4 chain with T33E
notes: as for B4
B5 showed an EC50 (murine IL-6) of 7.7 nM.

— patent publication US20170129926A1 (ABCLON, published 2017)
